Reference: patent publication US12296019 (dated 2025)

Assay: peptide synthesis
Details: whole synthesis, analytical HPLC

## norbornene-PEG8-Asp-Cys*-Ala-Trp-His-Lys-Gly-Glu-Leu-Val-Trp-Cys*-Thr-NH2
  final HPLC purity: purity of 90% or more
